From US20220026415A1, “A METHOD FOR SCREENING A THERAPEUTIC AGENT FOR CANCER USING BINDING INHIBITOR OF CYCLIN-DEPENDENT KINASE 1 (CDK1)-CYCLIN B1 AND RETINOIC ACID RECEPTOR RESPONDER 1 (RARRES1) GENE KNOCKOUT ANIMAL MODEL” (NATIONAL CANCER CENTER, priority 2018, published 2022)
Results are given in words; binding and its absence hold for the method and conditions named. For part of these data: Binding seen in cells or lysates may run through a third protein. Some binding calls cover weakened binding; strength is not graded here.

Protein sequences, listed by entry. Tags and fused reporters are not part of them. Lines headed by an entry give the natural chain unless they say otherwise; changes in a name come on top.
UniProt P06493: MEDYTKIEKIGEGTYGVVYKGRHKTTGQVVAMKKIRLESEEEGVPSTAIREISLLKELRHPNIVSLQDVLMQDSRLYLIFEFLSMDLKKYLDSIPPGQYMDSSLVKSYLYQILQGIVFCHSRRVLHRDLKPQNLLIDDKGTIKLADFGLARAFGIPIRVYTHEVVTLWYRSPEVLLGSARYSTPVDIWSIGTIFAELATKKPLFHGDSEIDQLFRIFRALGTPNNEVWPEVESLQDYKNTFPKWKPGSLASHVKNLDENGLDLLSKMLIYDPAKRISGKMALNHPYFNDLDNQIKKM
UniProt P14635: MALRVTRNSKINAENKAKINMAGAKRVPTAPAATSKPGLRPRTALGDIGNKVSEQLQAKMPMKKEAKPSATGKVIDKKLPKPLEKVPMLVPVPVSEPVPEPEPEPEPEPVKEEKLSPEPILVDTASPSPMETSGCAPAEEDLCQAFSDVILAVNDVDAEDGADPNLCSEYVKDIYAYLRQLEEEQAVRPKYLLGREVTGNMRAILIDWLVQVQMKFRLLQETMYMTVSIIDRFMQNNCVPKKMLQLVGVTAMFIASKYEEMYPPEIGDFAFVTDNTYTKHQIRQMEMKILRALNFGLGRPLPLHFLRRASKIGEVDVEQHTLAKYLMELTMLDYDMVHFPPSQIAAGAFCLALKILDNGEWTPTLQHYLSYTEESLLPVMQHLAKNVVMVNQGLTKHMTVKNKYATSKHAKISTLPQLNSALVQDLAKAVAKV
UniProt P49788: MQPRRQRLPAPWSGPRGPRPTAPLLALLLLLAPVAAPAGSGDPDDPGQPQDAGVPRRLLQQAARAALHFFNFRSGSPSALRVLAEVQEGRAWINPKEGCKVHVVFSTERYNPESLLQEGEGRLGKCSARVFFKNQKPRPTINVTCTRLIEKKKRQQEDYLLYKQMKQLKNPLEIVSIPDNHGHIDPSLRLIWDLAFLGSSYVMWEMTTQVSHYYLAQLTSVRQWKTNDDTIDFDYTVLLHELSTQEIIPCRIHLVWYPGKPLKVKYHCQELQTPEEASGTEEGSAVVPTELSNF

Columns and labels:
[1] = target: GST-CDK1 (UniProt P06493); assay: GST pull-down from HEK293 cells co-transfected with RARRES1 and GST-CDK1
[2] = target: glutathione S-transferase (GST)-tagged Cyclin B1 (Homo sapiens (Human)) (UniProt P14635); assay: GST-bead precipitation from HEK293 cells co-transfected with RARRES1 and Cyclin B1
[3] = target: GST-CDK1 (UniProt P06493); assay: GST pull-down from HEK293 cells co-transfected with RARRES1 and GST-CDK1, immunoblot
[4] = target: glutathione S-transferase (GST)-tagged Cyclin B1 (Homo sapiens (Human)) (UniProt P14635); assay: GST pull-down from HEK293 cells co-transfected with RARRES1 and GST-Cyclin B1, immunoblot
[5] = target: endogenous CDK1 of HEK293 cells (UniProt P06493); assay: immunoprecipitation with RARRES1-specific antibody from mitotic (+nocodazole) or exponentially growing 293 cells, immunoblot
[6] = target: endogenous Cyclin B1 of HEK293 cells (Homo sapiens (Human)) (UniProt P14635); assay: as above

Measured: binding

retinoic acid receptor responder 1 (RARRES1), isoform 1, wild type, overexpressed in HEK293 cells (from UniProt P49788 1-294)
binds: all assays above
